Test results taken from US20200102347A1 (AUCTUS BIOLOGIES, published 2020).
No constants are given. Whether binding was seen depends on the method and setting. Some results given as binding are weak or reduced against the parent protein; the word gives no strength. For some of these results: Where a sequence is shown, tags or fusion partners need not be part of it.

How the values were obtained:
[1] = target: T1, NativeRPtag(large)_with_Tags_and_Cys (Thermoanaerobacter tengcongensis); assay: ELISA-type plate assay, CSPD and p-nitrophenyl phosphate read-outs
T1 sequence: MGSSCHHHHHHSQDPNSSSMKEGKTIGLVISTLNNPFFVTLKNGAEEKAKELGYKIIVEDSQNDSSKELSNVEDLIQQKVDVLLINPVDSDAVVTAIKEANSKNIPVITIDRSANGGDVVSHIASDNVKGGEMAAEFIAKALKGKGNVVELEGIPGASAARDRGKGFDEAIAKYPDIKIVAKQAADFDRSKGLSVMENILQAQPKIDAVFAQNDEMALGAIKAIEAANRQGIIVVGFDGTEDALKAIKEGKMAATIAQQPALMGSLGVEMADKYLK

[2] = target: T1, NativeRPtag(large)_with_Tags_and_Cys (Thermoanaerobacter tengcongensis); assay: ELISA-type plate assay; RPtag (large) immobilized by maleimide, 12.4 µM fusion protein, detection with pNPP (left) and CSPD (right)
RPtag(small) Nd2, Cd4 = target: T2, RPtag(small) Nd2, Cd4 (Thermoanaerobacter tengcongensis); assay: fluorescence anisotropy; 2 nM rhodamine Nd2Cd4, unlabeled RPtag large variant titrated; bar of Ka = 1/Kd, right axis
T2 peptide: RhodamineB-KIPNFIPAELKLITK

[3] = target: T3, MaturePDGF-β_NterminalPeptide; assay: fluorescence anisotropy; 20 nM rhodamine PDGF-β N-terminal peptide, unlabeled RPtag large variant titrated; bar of Ka = 1/Kd, left axis
T3 construct: an N-terminal G was added and is left out of the numbering; also called PDGF-β peptide
T3 peptide: RhodamineB-GSLGSLTIAEPAMIAE

Q: What does the source list for PAELKLITK (enzyme) [RPtag(small) Nd8Cd4-labeled alkaline phosphatase]?
A: binding [1]: binds; binding [2]: binds

B1: d126l (designed binder)
single chain: MGSSCHHHHHHSQDPNSSSMKEGKTIGLVISTLNNPFFVTLKNGAEEKAKELGYKIIVEDSQNDSSKELSNVEDLIQQKVDVLLINPVDSDAVVTAIKEANSKNIPVITIDRSANGGDVVSHIASLNVKGGEMAAEFIAKALKGKGNVVELEGIPGASAARDRGKGFDEAIAKYPDIKIVAKQAADFDRSKGLSVMENILQAQPKIDAVFAQNDEMALGAIKAIEAANRQGIIVVGFDGTEDALKAIKEGKMAATIAQQPALMGSLGVEMADKYLK
Q: With B1 as the binder, how does the binding (RPtag(small) Nd2, Cd4) read?
A: binds

Q: And the binding [3]?
A: binds

B2: k129l (designed binder)
single chain: MGSSCHHHHHHSQDPNSSSMKEGKTIGLVISTLNNPFFVTLKNGAEEKAKELGYKIIVEDSQNDSSKELSNVEDLIQQKVDVLLINPVDSDAVVTAIKEANSKNIPVITIDRSANGGDVVSHIASDNVLGGEMAAEFIAKALKGKGNVVELEGIPGASAARDRGKGFDEAIAKYPDIKIVAKQAADFDRSKGLSVMENILQAQPKIDAVFAQNDEMALGAIKAIEAANRQGIIVVGFDGTEDALKAIKEGKMAATIAQQPALMGSLGVEMADKYLK
Q: What does the source list for B2?
A: binding (RPtag(small) Nd2, Cd4): binds; binding [3]: binds

B3: g130l (designed binder)
single chain: MGSSCHHHHHHSQDPNSSSMKEGKTIGLVISTLNNPFFVTLKNGAEEKAKELGYKIIVEDSQNDSSKELSNVEDLIQQKVDVLLINPVDSDAVVTAIKEANSKNIPVITIDRSANGGDVVSHIASDNVKLGEMAAEFIAKALKGKGNVVELEGIPGASAARDRGKGFDEAIAKYPDIKIVAKQAADFDRSKGLSVMENILQAQPKIDAVFAQNDEMALGAIKAIEAANRQGIIVVGFDGTEDALKAIKEGKMAATIAQQPALMGSLGVEMADKYLK
Q: How did the binding (RPtag(small) Nd2, Cd4) turn out when B3 was run?
A: binds

B4: d126i (designed binder)
single chain: MGSSCHHHHHHSQDPNSSSMKEGKTIGLVISTLNNPFFVTLKNGAEEKAKELGYKIIVEDSQNDSSKELSNVEDLIQQKVDVLLINPVDSDAVVTAIKEANSKNIPVITIDRSANGGDVVSHIASINVKGGEMAAEFIAKALKGKGNVVELEGIPGASAARDRGKGFDEAIAKYPDIKIVAKQAADFDRSKGLSVMENILQAQPKIDAVFAQNDEMALGAIKAIEAANRQGIIVVGFDGTEDALKAIKEGKMAATIAQQPALMGSLGVEMADKYLK
Q: How did the binding (RPtag(small) Nd2, Cd4) turn out when B4 was run?
A: binds

Q: And the binding [3]?
A: binds

B5: l266e (designed binder)
single chain: MGSSCHHHHHHSQDPNSSSMKEGKTIGLVISTLNNPFFVTLKNGAEEKAKELGYKIIVEDSQNDSSKELSNVEDLIQQKVDVLLINPVDSDAVVTAIKEANSKNIPVITIDRSANGGDVVSHIASDNVKGGEMAAEFIAKALKGKGNVVELEGIPGASAARDRGKGFDEAIAKYPDIKIVAKQAADFDRSKGLSVMENILQAQPKIDAVFAQNDEMALGAIKAIEAANRQGIIVVGFDGTEDALKAIKEGKMAATIAQQPALMGSEGVEMADKYLK
Q: Which binding (RPtag(small) Nd2, Cd4) does the source give for B5 here?
A: binds

Q: And the binding [3]?
A: binds

B6: g130i (designed binder)
single chain: MGSSCHHHHHHSQDPNSSSMKEGKTIGLVISTLNNPFFVTLKNGAEEKAKELGYKIIVEDSQNDSSKELSNVEDLIQQKVDVLLINPVDSDAVVTAIKEANSKNIPVITIDRSANGGDVVSHIASDNVKIGEMAAEFIAKALKGKGNVVELEGIPGASAARDRGKGFDEAIAKYPDIKIVAKQAADFDRSKGLSVMENILQAQPKIDAVFAQNDEMALGAIKAIEAANRQGIIVVGFDGTEDALKAIKEGKMAATIAQQPALMGSLGVEMADKYLK
Q: What does the source list for B6?
A: binding (RPtag(small) Nd2, Cd4): binds; binding [3]: binds

B7: l266n (designed binder)
single chain: MGSSCHHHHHHSQDPNSSSMKEGKTIGLVISTLNNPFFVTLKNGAEEKAKELGYKIIVEDSQNDSSKELSNVEDLIQQKVDVLLINPVDSDAVVTAIKEANSKNIPVITIDRSANGGDVVSHIASDNVKGGEMAAEFIAKALKGKGNVVELEGIPGASAARDRGKGFDEAIAKYPDIKIVAKQAADFDRSKGLSVMENILQAQPKIDAVFAQNDEMALGAIKAIEAANRQGIIVVGFDGTEDALKAIKEGKMAATIAQQPALMGSNGVEMADKYLK
Q: Which binding (RPtag(small) Nd2, Cd4) does the source give for B7 here?
A: binds

Q: And the binding [3]?
A: binds

B8: l266k (designed binder)
single chain: MGSSCHHHHHHSQDPNSSSMKEGKTIGLVISTLNNPFFVTLKNGAEEKAKELGYKIIVEDSQNDSSKELSNVEDLIQQKVDVLLINPVDSDAVVTAIKEANSKNIPVITIDRSANGGDVVSHIASDNVKGGEMAAEFIAKALKGKGNVVELEGIPGASAARDRGKGFDEAIAKYPDIKIVAKQAADFDRSKGLSVMENILQAQPKIDAVFAQNDEMALGAIKAIEAANRQGIIVVGFDGTEDALKAIKEGKMAATIAQQPALMGSKGVEMADKYLK
Q: With B8 as the binder, how does the binding (RPtag(small) Nd2, Cd4) read?
A: binds

Q: What about the binding [3] of the same binder?
A: binds

B9: l266r (designed binder)
single chain: MGSSCHHHHHHSQDPNSSSMKEGKTIGLVISTLNNPFFVTLKNGAEEKAKELGYKIIVEDSQNDSSKELSNVEDLIQQKVDVLLINPVDSDAVVTAIKEANSKNIPVITIDRSANGGDVVSHIASDNVKGGEMAAEFIAKALKGKGNVVELEGIPGASAARDRGKGFDEAIAKYPDIKIVAKQAADFDRSKGLSVMENILQAQPKIDAVFAQNDEMALGAIKAIEAANRQGIIVVGFDGTEDALKAIKEGKMAATIAQQPALMGSRGVEMADKYLK
Q: For B9, which binding (RPtag(small) Nd2, Cd4) is on record?
A: binds

Q: What about the binding [3] of the same binder?
A: binds
